# US12474342B2, “Methods for treating cancer and the use of biomarkers as a predictor of clinical sensitivity to therapies” (CELGENE CORPORATION, priority 2016, dated 2025)
# Some results come without the dose or concentration used.
# Columns and labels:
# Assay type in all cases: cell-based, human
# [1] = tested on: HL-60 cells; assay: Apoptosis (caspase 3/7 activation), HL-60; details: HL-60, rank among nine AML cell lines
# [2] = tested on: ML-2 cells; assay: Apoptosis (caspase 3/7 activation), ML-2; details: ML-2, rank among nine AML cell lines
# [3] = tested on: F36-P cells; assay: Apoptosis (caspase 3/7 activation), F36-P; details: rank among nine AML cell lines
# [4] = tested on: HNT-34 cells; assay: Apoptosis (caspase 3/7 activation), HNT-34; details: HNT-34, rank among nine AML cell lines
# [5] = tested on: OCI-AML2 cells; assay: Apoptosis (caspase 3/7 activation), OCI-AML2; details: OCI-AML2, rank among nine AML cell lines
# [6] = tested on: KASUMI-1 cells; assay: Apoptosis (caspase 3/7 activation), Kasumi-1; details: Kasumi-1, rank among nine AML cell lines
smiles,measurement,setting,value
"O=C1CCC(N2Cc3cc(CNC(=O)C(F)(F)c4ccc(Cl)cc4)ccc3C2=O)C(=O)N1 (stereo not drawn) [Compound D, 2-(4-chlorophenyl)-N-((2-(2,6-dioxopiperidin-3-yl)-1-oxoisoindolin-5-yl)methyl)-2,2-difluoroacetamide]",Rank at 24 hr,[1],3
same,Rank at 48 hr,[1],2
same,Rank at 24 hr,[2],2
same,Rank at 48 hr,[2],3
same,Rank at 24 hr,[3],8
same,Rank at 48 hr,[3],8
same,Rank at 24 hr,[4],1
same,Rank at 48 hr,[4],1
same,Rank at 24 hr,[5],6
same,Rank at 48 hr,[5],5
same,Rank at 24 hr,[6],7
same,Rank at 48 hr,[6],7
